# Measurements published in paper PMC12040169 (PLOS Biology, 2025).
# Some of the results follow.
# System: T1, CTL2-GFP (C. trachomatis L2/434/Bu, GFP-expressing)
# T1 construct: L2/434/Bu, GFP-expressing
# Design: species or system HeLa; Intracellular C. trachomatis growth in HeLa cells, bulk GFP fluorescence relative to DMSO
# Settings: bulk GFP, single well; 28.5 h, 10 µM; inhibitor
row,Compound,% of control remaining
1,O=C(COc1cccnc1)N[C@H]1C2CCCCC2[C@@H]1c1ccccc1 (stereo partly shown) [CBK282951],109.031%
2,COc1cccc2cc(C(=O)C3=C(O)C(=O)N(CCN4CCOCC4)C3c3cccs3)oc12 (stereo not shown) [CBK269433],129.46%
3,NC(=O)NC(CC(=O)N1CCCC1c1ccncc1)c1cccc(Br)c1 (stereo not shown) [CBK306345],129.915%
4,O=C(NCCc1ccccc1)c1cc(Br)cnc1NCCCn1ccnc1 [CBK076421],111.398%
5,Cc1sc2ncn(CC(=O)NCc3nnc4n3CCC4)c(=O)c2c1C [CBK305654],155.579%
6,O=C1N/C(=N/c2ccccc2Cl)S/C1=C/c1ccc(-c2ccccc2Cl)o1 [CBK067752],105.752%
7,N=C(N)SCP(=O)(c1ccccc1)c1ccccc1 [CBK260990],87.8526%
8,Cc1cccc(C=C(Cl)c2nc3sc(C(=O)O)c(C)c3c(=O)[nH]2)c1 [CBK295626],150.94%
9,CCC1CCc2c(sc(NC(=O)c3cc(-c4ccc(C)cc4C)nc4ccccc34)c2C(=O)OC)C1 (stereo not shown) [CBK262629],118.094%
10,O=C(O)c1cccc(NC(=O)c2cnc(-c3cccc(C(F)(F)F)c3)c(-c3cccc(CO)c3)c2)c1 [CBK037565],126.435%
11,O=C(Nc1cccc(-c2csnn2)c1)c1ccco1 [CBK270255],124.975%
12,N#Cc1cccc(CN2C[C@H](O)C[C@H]2c2nc(-c3ccc4c(c3)OCO4)no2)c1 [CBK288866],140.121%
13,O=S1(=O)CCC(c2nc(-c3ccc(Br)o3)no2)C1 (stereo not shown) [CBK306134],125.273%
14,CN1CCN(C(=O)c2ccc(-c3nccnc3NCCc3cccnc3)cc2)CC1 [CBK036838],130.806%
15,O=C(CS(=O)(=O)c1ccccc1)Nc1ccc(OCc2ccccc2)cc1 [CBK269421],80.2609%
16,CSc1ccccc1C(=O)NCCN(C)C [CBK269757],106.692%
17,CS(=O)(=O)c1ccc(-n2nnnc2CN2CCC3(CCC3)C2)cc1 [CBK306262],191.515%
18,Cc1ccc(Cc2cnc(NC(=O)CN3CSCC3=O)s2)cc1Cl [CBK305001],94.1059%
19,Cn1cc(C2CCCCN2C(=O)c2cccc(C#N)c2)cn1 (stereo not shown) [CBK304611],126.849%
20,O=C1OC[C@@H](c2ccccc2)N1C(=O)[C@@H]1CN(Cc2ccccc2)C[C@H]1c1cc2ccccc2o1 [CBK022599C],93.5145%
21,COc1ccc(C(C)C)cc1-c1cn2ccnc2c(Nc2cccc(OC(F)(F)C(F)F)c2)n1 [CBK038049],148.481%
22,O=S(=O)(Nc1cccc2cc[nH]c12)c1ccc(F)cc1F [CBK153586],145.821%
23,O=C(Oc1ccc(F)cc1C(=O)/C=C/c1ccccc1F)c1cccc([N+](=O)[O-])c1 [CBK264859],66.9325%
24,CCOC(=O)c1ccc(C2=NCCC2)[nH]1 [CBK011191],122.578%
25,O=C(NCCCNc1ccc(C(F)(F)F)cc1[N+](=O)[O-])c1ccc(Cl)cc1 [CBK263721],123.323%
26,CC(C)n1ccc2cc(C(=O)NC3CCOC(C)(C)C3)ccc21 (stereo not shown) [CBK304366],112.45%

# Retrieved by structure from the list above, three records:
row,Compound,% of control remaining
10,O=C(O)c1cccc(NC(=O)c2cnc(-c3cccc(C(F)(F)F)c3)c(-c3cccc(CO)c3)c2)c1 [CBK037565],126.435%
16,CSc1ccccc1C(=O)NCCN(C)C [CBK269757],106.692%
14,CN1CCN(C(=O)c2ccc(-c3nccnc3NCCc3cccnc3)cc2)CC1 [CBK036838],130.806%

# Further compounds.

row,Compound,% of control remaining
1,COCC(=O)N1CCN(C(=O)c2cccc(F)c2)C[C@H]1C(=O)OC [CBK289608],106.48%
2,CCNC(=O)C1(Cc2ccccc2-c2ccccc2C)CCN(C(=O)C2CCCCC2)CC1 [CBK285717],103.144%
3,CSc1ccccc1-n1nnnc1SCc1ccccc1 [CBK099033],91.5787%
4,CCCN1C[C@@H](O)C[C@H]2[C@H](O)[C@@H]1c1ccccc1N2C(=O)OC [CBK007809],100%
5,Cc1cc(O)nc(C(C)N2CCN(Cc3noc(C(C)(C)C)n3)CC2)n1 (stereo not shown) [CBK305249],125.368%
6,Cc1nc(S(=O)(=O)N2CCC(C(=O)N3CCCCCC3)CC2)cn1C [CBK305765],188.668%
7,O=C(Nc1ccc(F)cc1)c1ccccc1NS(=O)(=O)c1ccc(C(F)(F)F)cc1[N+](=O)[O-] [CBK045439],87.4494%
8,Nc1nc(OCCN2CCCC2=O)cnc1-c1cc(Cl)cc(Cl)c1 [CBK145199],152.946%
9,Cc1ccc(-c2nnc(S)n2/N=C\c2ccccc2OCC(=O)O)cc1 [CBK264408],107.613%
10,CCCOCCCNS(=O)(=O)c1ccc(C(C)(C)CC)cc1 [CBK044821],93.985%
11,CC(C(=O)Nc1ccc(S(N)(=O)=O)cc1)N(C)Cc1ccccc1F (stereo not shown) [CBK305840],110.641%
12,FC(F)CN1CCN(Cc2ccc(Oc3cnccn3)cc2)CC1 [CBK306399],116.842%
13,COc1ccc([C@@H]2CCN(C(=O)c3cc(F)cc(F)c3)C[C@H]2O)cc1 [CBK283757],103.664%
14,COC[C@H]1CCCN1C(=O)[C@@H](C)C1CC[C@@]2(C)CC[C@H](NC(C)=O)[C@@H](C)[C@@H]2[C@H]1O (stereo partly shown) [CBK289438],121.008%
15,O=C(c1ccc(-n2cccn2)nc1)N1CCN(c2ccccc2O)CC1 [CBK297794],161.581%
16,CC(C)c1ccc(NC(=O)NC(=O)C2CCN(CCOc3ccc4ccccc4c3)CC2)c(C(C)C)c1 [CBK034883],120.479%
17,CCOC(=O)N1CCC(NS(=O)(=O)/C=C/c2ccccc2)CC1 [CBK045458],126.045%
18,O=C(N/N=C\c1ccc(OCc2ccccc2)cc1)C1COc2cc3ccccc3cc2O1 (stereo not shown) [CBK262764],125.212%
19,CC(NC(=O)c1ccccc1Cn1cccn1)c1ccccn1 (stereo not shown) [CBK281374],137.745%
20,O=[N+]([O-])c1ccc(N2CCCCC2)s1 [CBK016566],100.043%
21,Cc1cc2ccccc2n2c(=O)n(CC(=O)N(C(C)C)C(C)C)nc12 [CBK283885],126.751%
22,CN(C)c1ccc(CC(=O)Nc2cnc(-c3ccc(F)c(Cl)c3)c(-c3ccco3)n2)cc1 [CBK037581],156.912%
23,Cc1ccccc1C(NC(=O)C1CCN(C(=O)NCc2ccccc2)CC1)c1ncccc1C (stereo not shown) [CBK060398],100%
24,Cc1nnc(NS(=O)(=O)c2ccc(OC(F)(F)F)cc2)s1 [CBK026673],123.115%
25,COc1ccc(C(=O)C2=C(O)C(=O)N(Cc3cccnc3)C2c2cccc([N+](=O)[O-])c2)cc1 (stereo not shown) [CBK264661],95.2442%
26,O=C(CC1CCN(C(=O)c2ccc3nsnc3c2)CC1)N1CCN(c2ccccc2)CC1 [CBK286266],128.354%

row,Compound,% of control remaining
1,CC(=O)Nc1ccc(S(=O)(=O)NCC#N)cc1Cl [CBK045102],123.085%
2,COc1ccccc1N1CCN(c2cc(N3CCNCC3)ccc2[N+](=O)[O-])CC1 [CBK293931],147.393%
3,Cc1ccc(OCC(=O)N2CCN(S(=O)(=O)c3ccccc3[N+](=O)[O-])CC2)cc1 [CBK264260],99.8383%
4,Cc1nc(SCC(=O)NC(C)c2cccnc2)oc1C (stereo not shown) [CBK282198],121.525%
5,O=C(CN1CCC[C@@H]1CN1CCCC1)Nc1ncccn1 [CBK149107],124.337%
6,CC(=O)NC(c1ccccn1)C1CCCN(C(=O)C2CC2)C1 (stereo not shown) [CBK285040],85.3385%
7,Cc1sc2nc(C)n(C3CCNCC3)c(=O)c2c1C [CBK282421],107.979%
8,Cc1nc(CNc2ccc3nnc(C(F)(F)F)n3n2)cs1 [CBK305674],99.2366%
9,CCn1c(CC2CCN(C(=O)c3ccc(C)c(C)c3)CC2)nn(C)c1=O [CBK307133],143.026%
10,Cc1ccc(OCCn2cncc2-c2cn(C)nc2C)cc1 [CBK281626],103.037%
11,Cc1ccc(CN2C(=O)CSC2c2cn(-c3ccccc3)nc2-c2ccccc2)cc1 (stereo not shown) [CBK263678],36.2103%
12,O=C(Nc1ccccc1-c1nc2ccccc2s1)c1sc2cc(Cl)ccc2c1Cl [CBK268642],154.088%
13,CCNC(CO)c1ccccc1 (stereo not shown) [CBK061785],83.9839%
14,O=C(O)CCC(=O)Nc1ccc(Sc2ccc([N+](=O)[O-])cc2)cc1 [CBK020438],110.674%
15,Cc1cc(C(F)(F)F)nc2sc(C(=O)c3ccc4c(c3)OCO4)c(N)c12 [CBK074388],115.967%
16,Cc1ccc(C)c(C2CCCN2C(=O)c2cccn(CC(=O)NC3CCCCC3)c2=O)c1 (stereo not shown) [CBK286010],125.487%
17,O=C(O)c1ccc(S(=O)(=O)NCC2CCCO2)cc1 (stereo not shown) [CBK262364],143.692%
18,Cc1ccc(N(CC(=O)N/N=C/C(C)C)S(=O)(=O)c2ccccc2)c(C)c1 [CBK262397],96.0483%
19,Cn1c(=O)n(CC(=O)NC2(C)C3CCC(C3)C2(C)C)c2cccnc21 (stereo not shown) [CBK283330],120.243%
20,CN(C)C(=O)c1cc(-c2ccco2)cnc1NS(C)(=O)=O [CBK076490],103.869%
21,CC1(C)N=C(c2ccc(Cl)cc2Cl)C(=S)N1 [CBK288449],107.792%
22,COCCn1c(CN2CCOCC2)nc2c1c(=O)[nH]c(=O)n2C [CBK269890],107.28%
23,Cn1nc(-c2ccc(S(=O)(=O)Nc3cccc(C(=O)O)c3)s2)cc1C(F)(F)F [CBK155080],140.387%
24,CC1=CC(C)(NC(N)=O)NC(=S)N1 (stereo not shown) [CBK020817],95.4335%

# Arranged by molecular weight (descending): part of the list above
row,Compound,% of control remaining
16,Cc1ccc(C)c(C2CCCN2C(=O)c2cccn(CC(=O)NC3CCCCC3)c2=O)c1 (stereo not shown) [CBK286010],125.487%
11,Cc1ccc(CN2C(=O)CSC2c2cn(-c3ccccc3)nc2-c2ccccc2)cc1 (stereo not shown) [CBK263678],36.2103%
7,Cc1sc2nc(C)n(C3CCNCC3)c(=O)c2c1C [CBK282421],107.979%
